The source of these data is patent publication US20140227293A1.

Amino acid sequences for entries named in this document (tags omitted). A change or cut given only in a name is not applied to a line headed by its entry. Chains listed by the source or under a name are the forms on record and can include a tag or linker.
endogenous SPIN90 of PAE cells (A0A8W4FEM2, form named): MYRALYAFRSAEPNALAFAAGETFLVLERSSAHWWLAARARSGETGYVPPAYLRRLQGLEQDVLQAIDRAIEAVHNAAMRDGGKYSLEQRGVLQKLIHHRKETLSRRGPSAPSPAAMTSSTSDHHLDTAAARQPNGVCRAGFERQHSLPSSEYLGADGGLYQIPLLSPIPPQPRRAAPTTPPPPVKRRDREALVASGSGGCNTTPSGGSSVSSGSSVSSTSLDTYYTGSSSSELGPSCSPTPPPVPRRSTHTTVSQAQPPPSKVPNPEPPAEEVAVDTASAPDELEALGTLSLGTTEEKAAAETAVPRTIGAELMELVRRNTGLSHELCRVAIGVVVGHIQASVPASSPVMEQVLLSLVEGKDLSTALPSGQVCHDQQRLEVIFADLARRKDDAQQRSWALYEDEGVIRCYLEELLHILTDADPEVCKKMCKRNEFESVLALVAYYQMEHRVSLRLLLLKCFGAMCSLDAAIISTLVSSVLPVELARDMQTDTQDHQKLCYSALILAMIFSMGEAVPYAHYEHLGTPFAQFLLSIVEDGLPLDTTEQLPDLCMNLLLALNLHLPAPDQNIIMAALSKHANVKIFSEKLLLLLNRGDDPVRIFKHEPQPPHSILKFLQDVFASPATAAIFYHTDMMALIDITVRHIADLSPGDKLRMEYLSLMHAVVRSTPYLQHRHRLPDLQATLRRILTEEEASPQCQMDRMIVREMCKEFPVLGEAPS

No constants are given. Whether binding was seen depends on the method and setting. In cells and extracts the contact can be indirect. Some binding calls cover weakened binding; strength is not graded here.

Assay [1] has as its target T1, immunoglobulin containing and proline rich receptor-1 (IGPR-1), human, full length, ectopically expressed in PAE cells (human) (UniProt Q96BF3).
T1 sequence (chain, N-glycosylated (apparent 55 kDa, 31 kDa after PNGase F)): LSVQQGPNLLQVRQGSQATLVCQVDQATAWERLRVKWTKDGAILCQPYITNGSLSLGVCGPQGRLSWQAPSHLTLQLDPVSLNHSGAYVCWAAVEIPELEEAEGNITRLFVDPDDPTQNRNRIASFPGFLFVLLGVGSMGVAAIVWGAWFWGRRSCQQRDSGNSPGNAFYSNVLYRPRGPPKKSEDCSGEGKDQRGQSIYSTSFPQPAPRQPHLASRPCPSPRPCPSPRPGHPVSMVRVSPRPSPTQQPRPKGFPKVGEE
Kind of assay: figure legend (FIG. 6D schematic; FIG. 6E GST-SH3 pull-down).

The target in assay [2] is T1, immunoglobulin containing and proline rich receptor-1 (IGPR-1), human, full length, ectopically expressed in PAE cells (human). Description: GST-SH3 pull-down from lysates of PAE cells expressing IGPR-1, anti-IGPR-1 immunoblot. (In general: Immunoblotting shows a protein as a band on a membrane.)
Assay [3] shares this target. Description: concluding sentence of Example 7, referring to the SH3 array, pull-down and co-immunoprecipitation.
Assay [4] shares this target. Description: co-immunoprecipitation from PAE cells expressing IGPR-1 (anti-IGPR-1 IP, anti-SPIN90 blot).

Consider “GST recombinant SH3 domain of CACNB2 (from UniProt P54288 86-155)”, for which the binding result in assay [1] and in assay [2] was “binds” in each case.
In the case of “GST recombinant SH3 domain of SPIN90 (from UniProt Q9NZQ3 1-58)”, the binding entry in assay [1], in assay [3] and in assay [2] was “binds” each time.
Consider “endogenous SPIN90 of PAE cells (from UniProt A0A8W4FEM2 1-720)”, for which the binding result in assay [4] is given as “binds”.
